These results are taken from patent US7879865B2, “Treatment of cancer of the brain using histone deacetylase inhibitors” (Sloan-Kettering Institute for Cancer Research, priority 2001, dated 2011).

Structures are written as SMILES.

One assay deals with tumor growth. To be noted: rodents; cited from earlier work.
Assay [1] concerns histone deacetylase (HDAC). Put plainly: Acetylated histone levels in mouse tissues after IP injection (Western blot of isolated histones). The class given is in vivo. The settings on record: mice, three injections at 1 hour intervals, SAHA 100 mg/kg, pyroxamide 200 mg/kg, anti-AcH3/AcH4 Western blot. The procedure:
FIG. 1 is a scan of a Western blot and Coomassie stained gel indicating levels of acetylated histone (αAcH3) at the indicated timepoints following treatment with vehicle (DMSO) or three doses of SAHA (100 mg/kg/hr).
FIG. […]
Mice (2 mice per condition) were injected by intraperitoneal injection (IP) with either SAHA (100 mg/kg), pyroxamide (200 mg/kg), or vehicle (dimethylsulfoxide). Each mouse was administered three injections at the indicated dose at 1 hour intervals. After the final IP injection tissues (brain, spleen or liver) were isolated at the times indicated. Histones were isolated from tissues essentially as described by Yoshida et al., (1990) J. Biol. Chem. 265:17174-17179. Equal amounts of histones (1 μg) were electrophoresed on 15% SDS-polyacrylamide gels and transferred to Hybond-P filters (Amersham). Filters were blocked with 3% milk and probed with a rabbit purified polyclonal anti-acetylated histone H4 antibody (αAc-H4) and anti-acetylated histone H3 antibody (αAc-H3) (Upstate Biotechnology, Inc.). Levels of acetylated histone were visualized using a horseradish peroxidase-conjugated goat anti-rabbit antibody (1:5000) and the SuperSignal chemiluminescent substrate (Pierce). As a loading control for the histone proteins, parallel gels were run and stained with Coomassie Blue (CB).

The test system of assay [2] is carcinogen-induced (N-methylnitrosourea) mammary tumors. To be noted: rats, SAHA in diet over 130 days; cited from earlier work.

As to `O=C(CCCCCCC(=O)Nc1ccccc1)NO` [SAHA, suberoylanilide hydroxamic acid], the “inhibition of tumor growth” value in the assay on tumor growth was “inhibits tumor growth in rodents”. Also, the “inhibition of HDAC activity / accumulation of acetylated histones in the brain” value in assay [1] is reported as “significantly inhibit HDAC activity causing the accumulation of acetylated histones in the brain”. Besides, the “inhibition of development and continued growth of mammary tumors” value in assay [2] is “effective at inhibiting the development and continued growth of carcinogen-induced (N-methylnitrosourea) mammary tumors in rats”.
